Laboratory results: patent publication US20100022495A1, “MODULATING ENDOPLASMIC RETICULUM STRESS IN THE TREATMENT OF TUBEROUS SCLEROSIS” (PRESIDENT AND FELLOWS OF HARVARD COLLEGE, priority 2005, published 2010)
At least one compound was matched to its structure with a doubt left.

How the values were obtained:
Assay type in all cases: cell-based, mouse
[1] = tested on: TSC1−/− MEFs; assay: ER stress parameters (western blot, XBP-1 rt-PCR) in TSC1-deficient MEFs; conditions: rapamycin 200 nM, 12 hours, PBA 10 mM
Experimental: (§1) All of the mouse embryonic fibroblast (MEF) cell lines (TSC1+/+, TSC1−/−, TSC2+/+, TSC2−/−) were cultured in medium containing DMEM-H+10% fetal bovine serum (FBS)+1% PS (penicillin-streptomycin complex) in 175 cm^2 cell culture flasks using standard methods. Upon reaching 90% confluency, cells were split into 10 cm dishes at 30-40% confluency and grown again in DMEM-H+10% FBS+1% PS to about 60% confluency for experiments.
[…] As a vehicle control, DMSO was not present at a sufficiently high concentration to act as a chemical chaperone. […] At the end of the incubation, the media was removed and dishes were immediately frozen in liquid nitrogen and stored at −80° C. untile further use.
(§2) Protein extracts were prepared with a lysis buffer containing 25 mM Tris-HCl (pH 7.4), 2 mM Na3VO4, 10 mM NaF, 10 mM Na4P2O7, 1 mM EGTA, 1 mM EDTA, 1% NP-40, 5 ug/ml leupeptin, 5 ug/ml aprotinin, 10 nM okadaic acid, and 1 mM phenylmethylsulfonyl fluoride (PMSF). Immunoprecipitations and immunoblotting experiments were performed with 200 and 75 μg total protein, respectively without any freeze-thaw cycles from individual aliquots.
(§3) Protein concentrations were normalized and the desired amounts were aliquotted into tubes. Laemelli buffer was added to a 1× final concentration and the samples were boiled for five minutes. After boiling, the samples were incubated at room temperature for 20 minutes. The boiled, cooled lysates were centrifuged at 14,000 rpm and subject to SDS-PAGE. Proteins were transferred to PVDF membranes for western blotting.
(§4) Membrane blotting was performed using standard techniques and reagents. Appropriate modification depending on the antibodies used and other considerations, is within the ability of those skilled in the art. Membranes were blocked in 10% blocking reagent for 1 hour prior to exposure to primary antibody in tris-buffered saline-tween (TBST), pH 7.4, overnight at 4° C. Following overnight incubation, membranes were washed in TBST for 3×20 minutes and placed into secondary antibody for 1 hour. Subsequently the membrane was washed 3×20 minutes in TBST. After the washing period, the membranes were developed by using a chemiluminescence kit and the bands were visualized using a phospho imager system (VersaDoc Imaging System, Model 3000).
Phosphorylation state of the ER stress markers PERK and s6K1 were analyzed in both wild type (TSC2+/+ and TSC1+/+) and TSC-deficient (TSC2−/− and TSC1−/−) MEFs. Cells were cultured and treated with DMSO (vehicle control) or rapamycin as discussed above. Rapamycin inhibits signaling through the mTOR pathway which is required for ER stress response. […]
(§5) Phosphorylation state of the ER stress markers PERK, eIF2α cJun, JNK and s6K1, and the level of spliced XBP-1 were analyzed in both wild type and TSC-deficient MEFs. […]

[2] = tested on: TSC2−/− MEFs; assay: ER stress parameters (western blot, XBP-1 rt-PCR) in TSC2-deficient MEFs; conditions: rapamycin 200 nM, 12 hours
Experimental: as §1
At the start of the experiment, cells were placed in fresh media and treated with 200 nM Rapamycin or 10 mM […], and DMSO or PBS as respective vehicle controls (PBA was dissolved in PBS, and rapamycin was dissolved in DMSO), for 19 hours. As a vehicle control, DMSO was not present at a sufficiently high concentration to act as a chemical chaperone. Cells were then washed 3 times with serum-free DMEM-H+1% PS and incubated for 5 hours in serum free DMEM-H+1% PS in the presence of rapamycin or PBA and their appropriate vehicle controls. At the end of the incubation, the media was removed and dishes were immediately frozen in liquid nitrogen and stored at −80° C. untile further use.
as §2, §3
as §4, with “Subsequently the membrane was washed 3×20 minutes in TBST. After the washing period, the membranes were developed by using a chemiluminescence kit and the bands were visualized using a phospho imager system (VersaDoc Imaging System, Model 3000).” left out
Phosphorylation state of the ER stress markers PERK and s6K1 were analyzed in both wild type (TSC2+/+ and TSC1+/+) and TSC-deficient (TSC2−/− and TSC1−/−) MEFs. […]
as §5

[3] = tested on: TSC2−/− cells; assay: Apoptosis (Cell Death Elisa, caspase 3 or PARP cleavage) in TSC2−/− cells; conditions: TSC-2−/− cells; rapamycin treatment to inhibit mTOR signaling

CO[C@H]1C[C@@H]2CC[C@@H](C)[C@@](O)(O2)C(=O)C(=O)N2CCCC[C@H]2C(=O)O[C@H]([C@H](C)C[C@@H]2CC[C@@H](O)[C@H](OC)C2)CC(=O)[C@H](C)/C=C(\C)[C@@H](O)[C@@H](OC)C(=O)[C@H](C)C[C@H](C)/C=C/C=C/C=C/1C [rapamycin]
blocked: ER stress induced PARP and caspase-3 cleavage [3]
substantially reduced: presence of spliced XBP-1 ([1]; rt-PCR) | presence of spliced XBP-1 ([2]; rt-PCR)
abolished: PERK phosphorylation ([1]; western blot) | S6 phosphorylation ([1]; western blot) | s6K1 phosphorylation ([1]; western blot) | PERK phosphorylation ([2]; western blot, PBA 10 mM) | S6 phosphorylation ([2]; western blot, PBA 10 mM) | s6K1 phosphorylation ([2]; western blot, PBA 10 mM)
